Source: paper doi:10.1101/2025.05.28.656585
Where two headings read alike, the source gives them in different places. These are yes or no findings as the source states them, for the method shown. Binding seen in cells or lysates may run through a third protein. Some binding calls cover weakened binding; strength is not graded here. Where a sequence is shown, tags or fusion partners need not be part of it.

Protein sequences, listed by entry. Tags and fused reporters are not part of them. Lines headed by an entry give the natural chain unless they say otherwise; changes in a name come on top.
UniProt O18333, whole entry, looked up, stated change not applied: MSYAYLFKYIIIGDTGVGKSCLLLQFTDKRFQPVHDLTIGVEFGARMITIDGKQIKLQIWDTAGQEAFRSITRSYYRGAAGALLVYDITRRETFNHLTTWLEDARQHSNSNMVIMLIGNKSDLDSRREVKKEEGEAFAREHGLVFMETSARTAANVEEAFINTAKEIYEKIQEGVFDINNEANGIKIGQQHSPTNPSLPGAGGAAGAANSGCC

T1: HA-tagged Syd fragment N4 (Syd 1-485) (Drosophila) (UniProt Q9GQF1)
T1 sequence: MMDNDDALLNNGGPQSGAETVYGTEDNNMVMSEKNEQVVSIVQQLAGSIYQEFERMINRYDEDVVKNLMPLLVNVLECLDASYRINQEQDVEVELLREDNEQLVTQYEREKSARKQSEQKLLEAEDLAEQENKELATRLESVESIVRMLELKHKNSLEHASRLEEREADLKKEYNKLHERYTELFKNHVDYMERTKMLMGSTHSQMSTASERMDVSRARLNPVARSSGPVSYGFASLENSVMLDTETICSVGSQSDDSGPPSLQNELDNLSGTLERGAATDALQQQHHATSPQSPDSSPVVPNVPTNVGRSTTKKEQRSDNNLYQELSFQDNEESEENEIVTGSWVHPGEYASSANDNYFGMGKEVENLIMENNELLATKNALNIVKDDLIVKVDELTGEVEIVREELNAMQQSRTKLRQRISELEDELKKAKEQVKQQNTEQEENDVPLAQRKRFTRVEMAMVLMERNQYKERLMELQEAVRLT

T2: HA-tagged Syd fragment N2 (Syd 1-529) (Drosophila) (UniProt Q9GQF1)
T2 sequence: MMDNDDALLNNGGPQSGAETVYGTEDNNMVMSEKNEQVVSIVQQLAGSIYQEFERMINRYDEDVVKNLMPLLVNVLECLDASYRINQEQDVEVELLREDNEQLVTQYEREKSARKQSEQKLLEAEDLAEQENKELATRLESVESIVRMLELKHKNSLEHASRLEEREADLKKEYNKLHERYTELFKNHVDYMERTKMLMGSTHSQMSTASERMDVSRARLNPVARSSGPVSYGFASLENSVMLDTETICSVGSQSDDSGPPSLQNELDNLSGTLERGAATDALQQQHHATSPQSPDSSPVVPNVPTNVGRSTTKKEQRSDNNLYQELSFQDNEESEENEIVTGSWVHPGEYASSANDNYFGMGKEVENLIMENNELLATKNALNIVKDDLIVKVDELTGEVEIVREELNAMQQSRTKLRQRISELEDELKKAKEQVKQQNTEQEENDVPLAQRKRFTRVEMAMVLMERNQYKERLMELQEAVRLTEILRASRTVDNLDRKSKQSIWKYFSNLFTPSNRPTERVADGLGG

T3: HA-tagged Syd fragment N5 (RH1-LZI region only) (Drosophila) (UniProt Q9GQF1)
T3 sequence: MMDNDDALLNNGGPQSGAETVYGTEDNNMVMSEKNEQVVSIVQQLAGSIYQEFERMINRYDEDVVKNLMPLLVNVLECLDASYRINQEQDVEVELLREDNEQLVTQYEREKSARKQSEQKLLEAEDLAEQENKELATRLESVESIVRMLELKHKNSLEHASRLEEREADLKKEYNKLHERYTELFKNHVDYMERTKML


How the values were obtained:
Assay in all cases: co-IP
[1] = target: T1, HA-tagged Syd fragment N4 (Syd 1-485) (Drosophila)
[2] = target: T2, HA-tagged Syd fragment N2 (Syd 1-529) (Drosophila)
[3] = target: T1, HA-tagged Syd fragment N4 (Syd 1-485) (Drosophila); remark: listed apart in the source
[4] = target: T2, HA-tagged Syd fragment N2 (Syd 1-529) (Drosophila); remark: listed apart in the source
[5] = target: T3, HA-tagged Syd fragment N5 (RH1-LZI region only) (Drosophila)

| binding [1] | binding [2] | binding [3] | binding [4] | binding [5] | Molecule |
| --- | --- | --- | --- | --- | --- |
| no binding | binds | – | – | – | myc-tagged Rab2 Q65L (from UniProt O18333 1-213) |
| – | – | binds | binds | binds | V5-tagged dynein light intermediate chain (DLIC) (protein, UniProt Q9VZ20 1-493) MAMNSGTQTNALTSSFTMKKKDAAAEKENLWSAILNEVQTQGSTKLPSNKSVLVLGDNATGKTTLIAKLQGVEDPKKGSGLEYAYIDVKDEYRDDMTRLGVWVLDGDPGHTNLLHYALNETNYAHTLVILTVSMTQPWGWLEQLNHWIKVLGQHIDSLQLDAKEKEAARQRLTTTWQSYCEVGDDLDPGSPVKRTMRNNSIDEDDLLPLTEDALITNLGLDIVVVVTKTDYMTTLEKEYEYRDEHFDFIQQWIRNFCLRHGTSLFYTSVKEDKNCDVLYKYLTHRIYGLPFRTPALVVEKDAVLIPAGWDSLKKISILYENMHGVKAENPYTDIIKSPPTRKAVSNREAEVQTEDEQAFLARQQEILKQGDQVRGESPLRSQGVGSNKSGPRTPGTTGQSSPKKIDPKLTPATPGAEGVLANFFNSLLHKKSGSPGTGGPGGAGNPAGPGRTANGTDAVMTPEKLAVRTDAAAELDRLSRSVKKEIDMSQSEC |
